Measurements reported in PubChem BioAssay AID743454 (Peter MacCallum Cancer Centre, 2014).

- Aim: 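Genes whose loss kills vorinostat-resistant colon cancer cells under vorinostat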 (primary screen)
- Cells: human HCT116-VR colon cancer cells, selected for vorinostat resistance
- Knock-down reagent: siRNA pool against human genes, 40 nM siRNA pool
- Time to read-out: vorinostat for 24 h, read-out about 72 h after transfection
- Challenge: vorinostat at 2.5 µM final
- Read-out: 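Cell viability by CellTiter-Fluor and caspase 3/7 activity by luminescence, each scaled to mock wells per plate, duplicates averaged, then robust z-scored over all plates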
- Reading the numbers: viability robust z-score: higher = more viable cells than screen typical; caspase robust z-score: higher = more caspase 3/7 activity than screen typical
- Hit rule: 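Hits are knock-downs in viability class RV1/RV2 or caspase class CA1/CA2, excluding ones that killed cells in the no-drug cell-count arm; hits then retested with single siRNAs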
Here is an unselected part of about 18,000 deposited reagents. 450 of all reagents (2.5%) were called active. 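Single biological run; no consistent viability z cut-off exists, so the class columns, not z-scores, define the calls.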 Reagent sequences are not shown.

PHF7 | viability hit class: no change; caspase hit class: no change; viability robust z-score: -0.11; caspase robust z-score: -0.12; activity call: inactive
CROCC | viability hit class: no change; caspase hit class: no change; viability robust z-score: 0.2; caspase robust z-score: 0.34; activity call: inactive
CCDC142 | viability hit class: no change; caspase hit class: no change; viability robust z-score: -0.38; caspase robust z-score: 0.22; activity call: inactive
ADD3 | viability hit class: no change; caspase hit class: no change; viability robust z-score: 0.83; caspase robust z-score: -0.52; activity call: inactive
WSCD1 | viability hit class: no change; caspase hit class: no change; viability robust z-score: 0.38; caspase robust z-score: -0.68; activity call: inactive
MANBA | viability hit class: no change; caspase hit class: no change; viability robust z-score: 1.94; caspase robust z-score: -0.72; activity call: inactive
MINDY3 | viability hit class: no change; caspase hit class: no change; viability robust z-score: -0.11; caspase robust z-score: -0.43; activity call: inactive
PXDC1 | viability hit class: no change; caspase hit class: no change; viability robust z-score: 0.99; caspase robust z-score: -0.85; activity call: inactive
BAZ2A | viability hit class: no change; caspase hit class: no change; viability robust z-score: 0.7; caspase robust z-score: -0.23; activity call: inactive
ZBED8L | viability hit class: no change; caspase hit class: no change; viability robust z-score: 0.26; caspase robust z-score: -0.67; activity call: inactive
EFCAB13 | viability hit class: no change; caspase hit class: no change; viability robust z-score: 0.66; caspase robust z-score: -0.14; activity call: inactive
ONECUT1 | viability hit class: no change; caspase hit class: no change; viability robust z-score: 1.46; caspase robust z-score: -0.16; activity call: inactive
BRD1 | viability hit class: no change; caspase hit class: no change; viability robust z-score: 0.98; caspase robust z-score: 0.18; activity call: inactive
VSIG2 | viability hit class: no change; caspase hit class: no change; viability robust z-score: -0.24; caspase robust z-score: 1.01; activity call: inactive
OR7G2 | viability hit class: no change; caspase hit class: no change; viability robust z-score: -0.32; caspase robust z-score: -0.02; activity call: inactive
TARS1 | viability hit class: no change; caspase hit class: no change; viability robust z-score: 0.29; caspase robust z-score: 0.32; activity call: inactive
STOM | viability hit class: no change; caspase hit class: no change; viability robust z-score: -1.14; caspase robust z-score: -0.58; activity call: inactive

Look-ups from the list.
For “viability robust z-score”, MANBA has 1.94
Result for PXDC1 in “viability hit class”: no change

Next reagents follow.
CDV3 | viability hit class: no change; caspase hit class: no change; viability robust z-score: -0.69; caspase robust z-score: -0.69; activity call: inactive
CCDC184 | viability hit class: no change; caspase hit class: no change; viability robust z-score: 0.84; caspase robust z-score: -0.44; activity call: inactive
TXNDC9 | viability hit class: no change; caspase hit class: no change; viability robust z-score: -0.82; caspase robust z-score: 3.84; activity call: inactive
AK8 | viability hit class: no change; caspase hit class: no change; viability robust z-score: 0.42; caspase robust z-score: 2.54; activity call: inactive
ABI2 | viability hit class: no change; caspase hit class: no change; viability robust z-score: 1.12; caspase robust z-score: -0.06; activity call: inactive
WIPI1 | viability hit class: no change; caspase hit class: no change; viability robust z-score: -1.9; caspase robust z-score: 2.84; activity call: inactive
WDR26 | viability hit class: no change; caspase hit class: no change; viability robust z-score: -1.14; caspase robust z-score: 0.52; activity call: inactive
SLC20A2 | viability hit class: no change; caspase hit class: no change; viability robust z-score: -0.29; caspase robust z-score: -0.55; activity call: inactive
MLPH | viability hit class: no change; caspase hit class: no change; viability robust z-score: -0.42; caspase robust z-score: 0.36; activity call: inactive
ZNF76 | viability hit class: no change; caspase hit class: no change; viability robust z-score: -0.22; caspase robust z-score: 3.17; activity call: inactive
